Measured values from patent US20160256527A1 (ONCOMED PHARMACEUTICALS, published 2016).
Results are given in words; binding and its absence hold for the method and conditions named. Some binding calls cover weakened binding; strength is not graded here. Where a sequence is shown, tags or fusion partners need not be part of it.

Columns and labels:
[1] = target: T1, full-length mouse GITR (cell surface expression) (mouse) (UniProt O35714); assay: flow cytometry, HEK-293 cells transfected with full-length mouse GITR
T1 sequence (looked up): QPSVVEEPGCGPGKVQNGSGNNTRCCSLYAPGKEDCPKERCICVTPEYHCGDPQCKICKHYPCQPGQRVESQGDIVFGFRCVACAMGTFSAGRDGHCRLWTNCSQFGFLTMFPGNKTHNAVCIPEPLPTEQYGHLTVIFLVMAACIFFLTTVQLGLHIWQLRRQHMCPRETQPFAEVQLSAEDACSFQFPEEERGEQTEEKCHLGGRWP

[2] = target: T1, full-length mouse GITR (cell surface expression) (mouse); assay: flow cytometry on HEK293 cells transiently co-transfected with full-length mouse GITR and GFP; PE-conjugated anti-Fc secondary antibody; binding signal plotted against GFP
[3] = target: T1, full-length mouse GITR (cell surface expression) (mouse); assay: flow cytometry dose response, HEK-293 cells transfected with full-length mouse GITR
[4] = target: T1, full-length mouse GITR (cell surface expression) (mouse); assay: flow cytometry dose series (2-fold dilutions) on HEK293 cells transiently co-transfected with mouse GITR and GFP; PE-conjugated anti-Fc secondary antibody

Measured: binding

B1: 336B3, single chain mouse GITRL trimer linked to the C-terminus of a mouse IgG2a Fc region (Fc fusion, UniProt Q7TS55 43-173, looked up, not shown: a dimerising Fc or GST)
chain: SLKPTAIESCMVKFELSSSKWHMTSPKPHCVNTTSDGKLKILQSGTYLIYGQVIPVDKKYIKDNAPFVVQIYKKNDVLQTLMNDFQILPIGGVYELHAGDNIYLKFNSKDHIQKTNTYWGIILMPDLPFISSLKPTAIESCMVKFELSSSKWHMTSPKPHCVNTTSDGKLKILQSGTYLIYGQVIPVDKKYIKDNAPFVVQIYKKNDVLQTLMNDFQILPIGGVYELHAGDNIYLKFNSKDHIQKTNTYWGIILMPDLPFISSLKPTAIESCMVKFELSSSKWHMTSPKPHCVNTTSDGKLKILQSGTYLIYGQVIPVDKKYIKDNAPFVVQIYKKNDVLQTLMNDFQILPIGGVYELHAGDNIYLKFNSKDHIQKTNTYWGIILMPDLPFIS
binds: [1] | [2]

B2: 336B10, single chain mouse GITRL trimer linked to the N-terminus of a mouse IgG2a Fc region (Fc fusion, UniProt Q7TS55 43-173, looked up, not shown: a dimerising Fc or GST)
chain: B1 chain
binds: all assays above
